PubChem BioAssay AID687005 (Broad Institute, 2013)
The inconclusive results got no clear call from the source; some entries with a clear call stand among them for comparison. Active and inactive are the calls of the source.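 How the source made its calls: active means Compounds that reduce signal, with fitted half-maximal dose at or under twice the top valid tested dose; inconclusive means Poor fit, or flat curve losing 30 to 70% of signal; inactive means Potency past limit, flat within 30%, or opposite direction.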

assay: viability loss in HEK293T cells – cell-based, ATP luminescence, cherry-pick samples, cytotoxicity control, dose response (AID 687005); conditions: ATP luminescence (CellTiter-Glo), 48 h; at 26 µM (top of the series) unless noted

Row | Compound | activity change, negative = cytotoxicity
1 | CN1CCN(C(=O)C[C@@H]2CC[C@H]3[C@@H](COC[C@H](O)CN3C(=O)Cc3ccccc3)O2)CC1 | inconclusive: -24.2%
2 | CCS(=O)(=O)NCC[C@@H]1CC[C@@H](NS(=O)(=O)c2cccc(F)c2)[C@@H](CO)O1 | inconclusive: -34.5%
3 | COc1ccc(NC(=O)Nc2ccc3c(c2)C(=O)N([C@H](C)CO)C[C@@H](C)[C@@H](CN(C)S(=O)(=O)c2ccc(Cl)cc2)OCCCC[C@H](C)O3)cc1 | inconclusive: -32.2%
4 | CCC(C)(C(=O)NC1CCCC1)N(C(C)=O)c1ccc(C)cc1 (centres undefined) | inactive: 9.31%
5 | CC(=O)N1[C@H](CO)[C@H](c2ccc(-c3ccccc3)cc2)[C@@H]1CNC(=O)C1CC1 | inconclusive: -35.9%
6 | C[C@@H]1CN([C@H](C)CO)C(=O)Cc2cc(NC(=O)NC3CCCCC3)ccc2O[C@@H]1CN(C)Cc1ccccc1 | inconclusive: -98.4%
7 | O=C(NC(=S)Nc1ccccc1N1CCCC1)c1ccccc1[N+](=O)[O-] | inconclusive: -48.9%
8 | C[C@@H]1CN([C@@H](C)CO)S(=O)(=O)c2ccc(C#C[C@@H](C)O)cc2O[C@@H]1CN(C)C(=O)C1CCCCC1 | inconclusive: -20.9%
9 | COc1ccc(S(=O)(=O)Nc2ccc3c(c2)C(=O)N([C@H](C)CO)C[C@@H](C)[C@@H](CN(C)C(=O)Nc2ccccc2)O3)cc1 | inconclusive: -5.09%
10 | CC(C)(C)C(=O)N1CCCC1C(=O)Nc1ccccc1 (centres undefined) | inconclusive: -47.6% [at 46 µM]
11 | Cc1ccc(S(=O)(=O)N2C[C@@H](O)COC[C@@H]3O[C@H](CC(=O)NCc4ccc5c(c4)OCO5)CC[C@H]32)cc1 | inactive: 46.9%
12 | COCC(=O)NC[C@H]1N[C@H](CO)[C@@H]1c1ccc(C2=CCCC2)cc1 | inactive: 16.1%
13 | CC(C)COc1ccc(CNC(=S)NCc2ccccc2)cc1 | inactive: -1.46%
14 | C[C@@H]1CCCCO[C@@H](CN(C)C(=O)NC2CCCCC2)[C@H](C)CN([C@@H](C)CO)C(=O)c2cc(NS(=O)(=O)c3cn(C)cn3)ccc2O1 | inactive: 36.8%
15 | C[C@@H]1CN([C@H](C)CO)C(=O)c2cc(NC(=O)Nc3cccc4ccccc34)ccc2O[C@H]1CN(C)C(=O)Nc1ccc(C(F)(F)F)cc1 | inactive: -31% [at 23.5 µM]
16 | O=C(O)C/C(=C\c1cccc(NC(=O)c2ccccc2Cl)c1)c1nc2ccccc2s1 | inconclusive: -73.8%
17 | Cc1ccc(S(=O)(=O)N[C@@H]2CC[C@H](CCNC(=O)C3CCCC3)O[C@@H]2CO)cc1 | inactive: -17.8%

Quoted from the listing:
Value of Cc1ccc(S(=O)(=O)N2C[C@@H](O)COC[C@@H]3O[C@H](CC(=O)NCc4ccc5c(c4)OCO5)CC[C@H]32)cc1 under activity change, negative = cytotoxicity: inactive: 46.9%
Value of COc1ccc(S(=O)(=O)Nc2ccc3c(c2)C(=O)N([C@H](C)CO)C[C@@H](C)[C@@H](CN(C)C(=O)Nc2ccccc2)O3)cc1 under activity change, negative = cytotoxicity: inconclusive: -5.09%

Continuation:

Row | Compound | activity change, negative = cytotoxicity
18 | CC(C)NC(=O)N(C)C[C@@H]1OCCCC[C@@H](C)Oc2ccc(NC(=O)c3ccccc3)cc2C(=O)N([C@H](C)CO)C[C@H]1C | inconclusive: -28%
19 | C[C@H](CO)N1C[C@H](C)[C@H](CN(C)Cc2cccnc2)Oc2ncc(C#CC3(O)CCCC3)cc2C1=O | inactive: -14.5%
20 | CNC[C@@H]1OCCCC[C@@H](C)Oc2ccc(NC(=O)Nc3ccc4c(c3)OCO4)cc2C(=O)N([C@H](C)CO)C[C@@H]1C | inconclusive: -37%
21 | C[C@@H]1CCCCO[C@@H](CN(C)Cc2ccncc2)[C@@H](C)CN([C@H](C)CO)C(=O)c2cc(NC(=O)c3ccncc3)ccc2O1 | inconclusive: -22.3%
22 | COc1ccccc1-c1cnc2c(c1)C(=O)N([C@@H](C)CO)C[C@@H](C)[C@H](CN(C)C(=O)c1cccnc1)O2 | inconclusive: -30.6%
23 | Cc1ccc(NC(=O)C2(N3CCC3=O)CCCCC2)cc1 | inconclusive: -15.8%
24 | C[C@@H]1CN([C@@H](C)CO)C(=O)c2cc(NS(=O)(=O)c3cn(C)cn3)ccc2O[C@@H](C)CCCCO[C@@H]1CN(C)Cc1ccc(C(F)(F)F)cc1 | inconclusive: -41.8%
25 | NC(=S)N/N=C/c1ccc(-c2cc(Cl)ccc2Cl)o1 | inconclusive: -47.5%
26 | C[C@H](CO)N1C[C@H](C)[C@H](CN(C)C(=O)Nc2ccc3c(c2)OCO3)Oc2ncc(-c3ccc(F)cc3)cc2C1=O | inactive: -18.8%
27 | O=C(C1CCOCC1)N1CC[C@@H]2[C@@H](CO)Nc3ccc(Br)cc3[C@@H]21 | inconclusive: -3.95%
28 | C[C@H](CO)N1C[C@H](C)[C@@H](CN(C)S(C)(=O)=O)Oc2cc(C#Cc3ccccc3)ccc2S1(=O)=O | inconclusive: -13.7%
29 | COc1ccc(-c2cnc3c(c2)C(=O)N([C@H](C)CO)C[C@H](C)[C@H](CN(C)Cc2ccc(F)cc2)O3)cc1 | inconclusive: -14.5%
30 | Cc1noc(C)c1NC(=O)N(C)C[C@@H]1Oc2ccc(NS(=O)(=O)c3cn(C)cn3)cc2CC(=O)N([C@H](C)CO)C[C@H]1C | inconclusive: -20.1% [at 23.5 µM]
31 | Cc1cccc(C)c1NC(=O)C(CCc1ccccc1)N1CCN(CCN(C)C)CC1 (centres undefined) | inconclusive: 23.3%
32 | Cc1ccc(/C=C2\SC(=S)N(NS(=O)(=O)c3ccc(C)cc3)C2=O)cc1 | inconclusive: 19%
33 | COc1cccc(S(=O)(=O)N2C[C@@H](O)COC[C@@H]3O[C@H](CC(=O)N4CCN(C)CC4)CC[C@H]32)c1 | inconclusive: -30.3%
34 | C[C@H]1CN([C@@H](C)CO)C(=O)c2cc(C#CCN(C)C)cnc2O[C@@H]1CN(C)C(=O)Nc1cccc(F)c1 | inconclusive: -7.91%
